Results as given in patent US20100104603A1.
These are yes or no findings as the source states them, for the method shown. Some binding calls cover weakened binding; strength is not graded here.

Protein sequences, listed by entry. Tags and fused reporters are not part of them. Lines headed by an entry give the natural chain unless they say otherwise; changes in a name come on top. Residues count along the entry.
UniProt P10145, residues 28-99: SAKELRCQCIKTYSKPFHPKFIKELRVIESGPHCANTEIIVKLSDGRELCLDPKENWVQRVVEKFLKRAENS
UniProt P13500, residues 24-99: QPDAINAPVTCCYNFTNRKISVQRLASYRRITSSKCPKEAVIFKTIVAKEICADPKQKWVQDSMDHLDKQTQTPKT
UniProt A0A0H3K6Z6: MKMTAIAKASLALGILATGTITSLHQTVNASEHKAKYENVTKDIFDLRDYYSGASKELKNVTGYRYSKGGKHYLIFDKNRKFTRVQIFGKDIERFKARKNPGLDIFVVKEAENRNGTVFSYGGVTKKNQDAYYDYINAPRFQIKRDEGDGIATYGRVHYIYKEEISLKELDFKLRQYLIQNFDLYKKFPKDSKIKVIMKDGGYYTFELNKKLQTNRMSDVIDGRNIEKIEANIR

How the values were obtained:
[1] = target: IL-8 (UniProt P10145); assay: flow cytometry, IL-8 on SSL5-pretreated U937 cells (legend of FIG. 10)
[2] = target: IL-8 (UniProt P10145); assay: ELISA, IL-8-coated surface, PSGL-1-Ig with SSL5 (legend of FIG. 13)
[3] = target: MCP-1 (UniProt P13500); assay: flow cytometry, MCP-1 on SSL5-pretreated U937 cells (legend of FIG. 10)

Measured: binding

Staphylococcal superantigen-like protein 5 (SSL5) of S. aureus strain NTCT 8325, recombinant (from UniProt A0A0H3K6Z6 31-234)
binds: all assays above
